No signal at the amounts used counts as a negative. For some assays here: The comparison behind a weaker result is the experiment's own reference, which may not be listed here. For some assays here: Construct, isoform or probe ends are uncertain for at least one entry.
Tests used:
[1] = molecular target: PSMA (prostate specific membrane antigen) (Homo sapiens) (UniProt Q04609); test: inhibition of the protein; details: 2'-F pyrimidines
[2] = tested on: HER2 (rHER2) (Rattus norvegicus); test: SPR; details: 2'-F pyrimidines, purified recombinant protein, label: 5'-biotin-spacer9-G
[3] = molecular target: PSMA (prostate specific membrane antigen) (Homo sapiens) (UniProt Q04609); test: activity in cells; details: 2'-F pyrimidines, protein on the cell surface
[4] = no inhibition at 200 nM RNA, purified recombinant protein, protein details: R&D Systems 4234-ZN-010, variant of A9g
[5] = inhibition completely lost, purified recombinant protein, protein details: R&D Systems 4234-ZN-010, variant of A9g
[6] = inhibition abrogated, purified recombinant protein, protein details: R&D Systems 4234-ZN-010, variant of A9g
[7] = comparable to A9g, purified recombinant protein, protein details: R&D Systems 4234-ZN-010, variant of A9g
[8] = NAALADase inhibited as well as A9, 800 nM RNA, purified recombinant protein, protein details: R&D Systems 4234-ZN-010, variant of A9

Chains of the proteins cited; added tags and fusions are not shown. Where a name states a change or a piece, a line headed by the entry shows the natural chain unless it says otherwise. Chains listed by the source or under a name are the forms on record and can include a tag or linker.
UniProt Q04609: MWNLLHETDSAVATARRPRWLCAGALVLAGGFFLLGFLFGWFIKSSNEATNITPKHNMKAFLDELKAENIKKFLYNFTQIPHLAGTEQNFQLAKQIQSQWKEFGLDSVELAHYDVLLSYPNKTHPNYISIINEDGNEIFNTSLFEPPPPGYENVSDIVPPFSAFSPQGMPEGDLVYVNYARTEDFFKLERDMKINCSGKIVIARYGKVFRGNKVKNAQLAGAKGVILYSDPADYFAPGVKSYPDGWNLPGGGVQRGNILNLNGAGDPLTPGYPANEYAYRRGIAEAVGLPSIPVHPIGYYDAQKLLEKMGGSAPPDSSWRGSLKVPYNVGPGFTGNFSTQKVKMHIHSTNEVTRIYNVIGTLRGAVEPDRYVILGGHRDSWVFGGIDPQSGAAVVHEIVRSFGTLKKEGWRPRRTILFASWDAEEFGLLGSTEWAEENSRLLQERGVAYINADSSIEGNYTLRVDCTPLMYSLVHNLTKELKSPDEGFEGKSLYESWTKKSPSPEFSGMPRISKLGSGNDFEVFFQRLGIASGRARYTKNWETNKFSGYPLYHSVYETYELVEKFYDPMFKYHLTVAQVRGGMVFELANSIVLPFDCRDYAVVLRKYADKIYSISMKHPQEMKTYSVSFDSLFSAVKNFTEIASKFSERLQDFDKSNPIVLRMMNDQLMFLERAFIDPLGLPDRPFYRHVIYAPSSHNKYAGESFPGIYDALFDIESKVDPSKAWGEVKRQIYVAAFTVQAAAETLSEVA
HER2 (rHER2) (Rattus norvegicus), one chain, as listed by the source: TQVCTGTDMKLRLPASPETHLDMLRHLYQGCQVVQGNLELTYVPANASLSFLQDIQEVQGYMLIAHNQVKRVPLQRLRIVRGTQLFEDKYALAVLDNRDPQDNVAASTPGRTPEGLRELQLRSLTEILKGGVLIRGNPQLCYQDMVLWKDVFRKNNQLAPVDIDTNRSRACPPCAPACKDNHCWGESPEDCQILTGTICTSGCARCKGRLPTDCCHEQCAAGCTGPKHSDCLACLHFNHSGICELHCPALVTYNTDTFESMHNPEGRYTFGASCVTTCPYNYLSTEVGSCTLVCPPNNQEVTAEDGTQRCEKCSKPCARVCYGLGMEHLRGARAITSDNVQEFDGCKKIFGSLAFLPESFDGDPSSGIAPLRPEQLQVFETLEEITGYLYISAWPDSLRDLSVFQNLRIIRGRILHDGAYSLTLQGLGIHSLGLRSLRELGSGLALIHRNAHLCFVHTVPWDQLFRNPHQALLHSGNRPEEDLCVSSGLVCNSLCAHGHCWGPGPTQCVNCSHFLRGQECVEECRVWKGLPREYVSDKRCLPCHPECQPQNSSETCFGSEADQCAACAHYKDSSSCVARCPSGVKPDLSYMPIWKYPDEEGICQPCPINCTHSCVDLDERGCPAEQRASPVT

Sequence: GGGACCGAAAAAGACCUAGUCUACGUUCCC [A9j]
- functional effect of the aptamer [1, 4]: not active

Sequence: GGGACCGAAAAAGACCUGACUUCUAUACUAAGUCUACGAUCCC [A9g.7 (U39A)]
- functional effect of the aptamer [1, 5]: not active

Sequence: GGGACCGAAAAAGACCUGACUUCUAUACUAAGUCUACGCUCCC [A9g.8 (U39C)]
- functional effect of the aptamer [1, 5]: not active

Sequence: GGGACCGAAAAAGACCUGACUUCUAUACUAAGUCUACGGUCCC [A9g.3 (U39G)]
- functional effect of the aptamer [1, 6]: not active

Sequence: GGGACCGAAAAAGACCUGACUUCUAUACUAAGUCUACGUUCCC [A9g 5'-biotin]
- binding result ([2]; no appreciable interaction, specificity control, variant of A9g): no binding

Sequence: GGGACCGAAAAAGACCUGACUUCUAUACUAAGUCUACGUUCCC [A9g-IRDye800CW]
- functional effect of the aptamer ([1]; inhibits to similar extent as A9g, purified recombinant protein, protein details: R&D Systems 4234-ZN-010, label: IRDye800CW, variant of A9g): active

Sequence: GGGACCGAAAAAGACCUGACUUCUAUACUAAGUCUACGUUCCC [A9g]
- functional effect of the aptamer ([3]; internalization, no loss vs A9, protein details: 22Rv1 (1.7) prostate cancer cells, variant of A9, dose not given here): active

Sequence: GGGACCGAAAAAGACCUGACUUCUAUACUAGGUCUACGUUCCC [A9g.5]
- functional effect of the aptamer ([1]; loss of inhibition, purified recombinant protein, protein details: R&D Systems 4234-ZN-010, variant of A9g): not active

Sequence: GGGACCGAAAAAGACCUGGCUUCUAUACUAAGUCUACGUUCCC [A9g.6 5'-biotin]
- binding result ([2]; no measurable binding, variant of A9g.6): no binding

Sequence: GGGACCGAAAAAGACCUGGCUUCUAUACUAAGUCUACGUUCCC [A9g.6-IRDye800CW]
- functional effect of the aptamer ([1]; inhibits to a much lesser degree than A9g, purified recombinant protein, protein details: R&D Systems 4234-ZN-010, label: IRDye800CW, variant of A9g.6): less active

Sequence: GGGACCGAAAAAGACCUGGCUUCUAUACUAAGUCUACGUUCCC [A9g.6]
- functional effect of the aptamer ([3]; no effect on migration or invasion, variant of A9g): not active
- functional effect of the aptamer ([3]; no internalization, protein details: 22Rv1 (1.7) prostate cancer cells, variant of A9g): not active
- functional effect of the aptamer [1, 6]: not active
- functional effect of the aptamer ([1]; no inhibition, protein in an extract, variant of A9g): not active

Sequence: GGGACCGAAAAAGCCCUGACUUCUAUACUAAGGCUACGUUCCC [A9g.2]
- functional effect of the aptamer [1, 7]: active

Sequence: GGGACCGAAAAAGGCCUGACUUCUAUACUAAGCCUACGUUCCC [A9g.1]
- functional effect of the aptamer [1, 7]: active

Sequence: GGGACCGAAAAAUACGUUCCC [A9k]
- functional effect of the aptamer [1, 4]: not active

Sequence: GGGACGAUGCGGACCGAAAAAGACCUGACUUCUAUACUAAGUCUACGUUCCCAGACGACCC [A9d]
- functional effect of the aptamer [1, 8]: active

Sequence: GGGACGAUGCGGACCGAAAAAGACCUGACUUCUAUACUAAGUCUACGUUCCCAGACGCCC [A9b]
- functional effect of the aptamer [1, 8]: active

Sequence: GGGAGGACGAUGCGGACCGAAAAAGACCUGACUUCUAUACUAAGUCUACGUUCCCAGACGACUCCC [A9a]
- functional effect of the aptamer [1, 8]: active

Sequence: GGGAGGACGAUGCGGACCGAAAAAGACCUGACUUCUAUACUAAGUCUACGUUCCCAGACGACUCGCCCGA [A9]
- functional effect of the aptamer ([3]; internalization vs PC-3, qRT-PCR, protein details: 22Rv1 (1.7) prostate cancer cells, dose not given here): active
- functional effect of the aptamer ([1]; NAALADase inhibited, purified recombinant protein, protein details: gift of D. Spencer, Baylor College of Medicine, dose not given here): active

Sequence: GGGAUGCGGACCGAAAAAGACCUGACUUCUAUACUAAGUCUACGUUCCCAGACCC [A9c]
- functional effect of the aptamer [1, 8]: active

Sequence: GGGCCGAAAAAGACCUGACUUCUAUACUAAGUCUACGUCCC [A9L]
- functional effect of the aptamer ([3]; internalization, no loss vs A9, protein details: 22Rv1 (1.7) prostate cancer cells, variant of A9g): active
- functional effect of the aptamer ([1]; equally effective as A9g, purified recombinant protein, protein details: R&D Systems 4234-ZN-010, variant of A9g): active

Sequence: GGGCCUGACUUCUAUACUAAGCCC [A9i]
- functional effect of the aptamer [1, 4]: not active

Sequence: GGGCGGACCGAAAAAGACCUGACUUCUAUACUAAGUCUACGUUCCCACC [A9e]
- functional effect of the aptamer [1, 8]: active

Sequence: GGGCGGACCGAAAAAGACCUGACUUCUAUACUAAGUCUACGUUCCCAGCCC [A9f]
- functional effect of the aptamer [1, 8]: active

Sequence: GGGGAAAAAGACCUGACUUCUAUACUAAGUCUACCCC [A9h]
- functional effect of the aptamer [1, 4]: not active

From patent publication US20140148503
